Results taken from patent US20180236026A1.
No constants are given. Whether binding was seen depends on the method and setting. In cells and extracts the contact can be indirect. Some binding calls cover weakened binding; strength is not graded here. Where a sequence is shown, tags or fusion partners need not be part of it.

The chains behind the UniProt entries cited, without tags or fusion partners.
UniProt Q99683: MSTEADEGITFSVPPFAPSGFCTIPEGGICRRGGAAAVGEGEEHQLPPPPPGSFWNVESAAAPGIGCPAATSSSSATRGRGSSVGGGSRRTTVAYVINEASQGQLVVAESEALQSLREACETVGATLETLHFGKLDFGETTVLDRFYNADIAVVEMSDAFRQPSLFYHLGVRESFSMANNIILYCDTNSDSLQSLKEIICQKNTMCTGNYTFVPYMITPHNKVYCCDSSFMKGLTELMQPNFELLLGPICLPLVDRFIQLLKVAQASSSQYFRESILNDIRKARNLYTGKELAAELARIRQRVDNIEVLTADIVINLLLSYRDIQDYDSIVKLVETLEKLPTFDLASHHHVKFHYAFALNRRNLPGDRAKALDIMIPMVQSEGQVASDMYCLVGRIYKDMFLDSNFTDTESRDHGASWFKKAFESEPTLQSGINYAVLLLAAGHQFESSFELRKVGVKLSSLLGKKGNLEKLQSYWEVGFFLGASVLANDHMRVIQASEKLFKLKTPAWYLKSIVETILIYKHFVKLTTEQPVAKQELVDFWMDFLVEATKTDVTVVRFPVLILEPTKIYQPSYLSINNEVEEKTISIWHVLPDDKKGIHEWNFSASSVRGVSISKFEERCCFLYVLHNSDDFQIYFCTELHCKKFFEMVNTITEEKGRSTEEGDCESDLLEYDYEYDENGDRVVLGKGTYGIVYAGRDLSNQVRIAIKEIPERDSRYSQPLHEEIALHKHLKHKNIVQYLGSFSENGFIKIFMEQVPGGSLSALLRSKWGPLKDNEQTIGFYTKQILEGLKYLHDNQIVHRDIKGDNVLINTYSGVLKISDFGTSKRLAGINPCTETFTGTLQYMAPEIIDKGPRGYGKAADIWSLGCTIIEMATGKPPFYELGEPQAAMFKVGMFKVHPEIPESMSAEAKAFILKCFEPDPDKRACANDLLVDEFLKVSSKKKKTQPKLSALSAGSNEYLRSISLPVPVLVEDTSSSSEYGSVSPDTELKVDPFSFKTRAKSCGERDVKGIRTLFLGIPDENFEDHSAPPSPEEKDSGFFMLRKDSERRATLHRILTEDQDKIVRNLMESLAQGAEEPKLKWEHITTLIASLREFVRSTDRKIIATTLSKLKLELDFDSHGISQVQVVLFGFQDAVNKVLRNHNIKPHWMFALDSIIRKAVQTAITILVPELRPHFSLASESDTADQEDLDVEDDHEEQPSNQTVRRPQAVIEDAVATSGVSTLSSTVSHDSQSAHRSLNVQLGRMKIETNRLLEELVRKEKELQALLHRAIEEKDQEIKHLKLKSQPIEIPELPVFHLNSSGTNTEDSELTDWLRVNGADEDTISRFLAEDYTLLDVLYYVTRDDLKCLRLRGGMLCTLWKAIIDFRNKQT

Experiments:
MKK4 (purified) [1] = biological target: T1, MKK4 (purified) (UniProt P45985); experiment: MBP pull-down, purified proteins
T1 sequence (looked up): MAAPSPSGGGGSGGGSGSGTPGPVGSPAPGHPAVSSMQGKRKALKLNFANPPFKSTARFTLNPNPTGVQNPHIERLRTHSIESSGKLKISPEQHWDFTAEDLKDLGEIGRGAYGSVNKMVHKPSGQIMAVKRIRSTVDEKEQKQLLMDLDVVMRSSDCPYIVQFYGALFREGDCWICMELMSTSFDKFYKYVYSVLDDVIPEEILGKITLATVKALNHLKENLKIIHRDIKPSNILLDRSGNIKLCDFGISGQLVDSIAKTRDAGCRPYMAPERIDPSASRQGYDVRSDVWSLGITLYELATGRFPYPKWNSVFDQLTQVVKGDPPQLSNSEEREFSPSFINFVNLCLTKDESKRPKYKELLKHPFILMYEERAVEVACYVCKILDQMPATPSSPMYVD

GST-MKK4 [2] = biological target: T2, GST-MKK4 (UniProt P45985); experiment: MBP pull-down (summary of Example 1)
T2 sequence (looked up): T1 sequence (looked up)

GST-MKK4 [3] = biological target: T2, GST-MKK4; experiment: MBP pull-down on amylose beads, Western blot
GST-MKK4 [4] = biological target: T2, GST-MKK4; experiment: MBP pull-down on amylose resin, purified proteins
MKK4 (purified) [5] = biological target: T1, MKK4 (purified); experiment: MBP pull-down, purified proteins, Western blot quantified
HA-ASK1 [6] = biological target: HA-ASK1 (UniProt Q99683); experiment: co-immunoprecipitation (summary of Example 1)
HA-ASK1 [7] = biological target: HA-ASK1 (UniProt Q99683); experiment: co-immunoprecipitation from cells with anti-GFP antibody
HA-ASK1 [8] = biological target: HA-ASK1 (UniProt Q99683); experiment: co-immunoprecipitation from COS7 cells with anti-GFP antibody
MKK4 (purified) [9] = biological target: T1, MKK4 (purified); experiment: MBP pull-down (summary of Example 1)

Measured: binding

TLVPRGSPGFMGEKPGTRVFKKSSPNCKLTVYLGK (peptide, not shown: large carriers) [MBP-T1A]
binds: MKK4 (purified) [1] | GST-MKK4 [2] | GST-MKK4 [3] | GST-MKK4 [4] | MKK4 (purified) [5]

MGEKPGTRVFKKSSPNCKLTVYLGK (peptide, not shown: large carriers) [YFP-T1A]
binds: HA-ASK1 [6] | HA-ASK1 [7] | HA-ASK1 [8]

TLVPRGSPGFMGDKGTRVFKKASPNGKLTVYLGK (peptide, not shown: large carriers) [MBP-B1A]
binds: MKK4 (purified) [1] | MKK4 (purified) [9] | MKK4 (purified) [5]
